Results reported in PMC12040169 (PLOS Biology, 2025).
The other results are listed elsewhere or left out. Peptide text beside a SMILES is read from it. * marks the point of attachment. Bz = O=C(c1ccccc1)*

system: T1, CTL2-GFP (C. trachomatis L2/434/Bu, GFP-expressing); set-up: species or system HeLa; Intracellular C. trachomatis growth in HeLa cells, bulk GFP fluorescence relative to DMSO; settings: bulk GFP, single well; 28.5 h, 10 µM; inhibitor
T1 construct: L2/434/Bu, GFP-expressing

Compound	% of control remaining [%]
CCc1cc(=O)[nH]c(-c2ccc(N3CCOCC3C)nc2)n1 (stereo not shown) [CBK305532]	155.596
Clc1ccccc1-c1nccnc1NCCc1ccncc1 [CBK038055]	241.308
Cc1nn(C)c(=O)c2c(C)noc12 [CBK001462]	115.803
Cn1c(CCNC(=O)NC2CCCCC2)nc2cc([N+](=O)[O-])ccc21 [CBK268453]	132.241
Cc1ccc(Cl)cc1N(Cc1ccc(C(=O)N2CCC(C)CC2)cc1)S(=O)(=O)c1ccccc1 [CBK033646]	97.0062
CC(C)(C)C(O)CNc1ncnc2ccc(S(C)(=O)=O)cc12 (stereo not shown) [CBK306494]	103.648
Cn1c(Cc2cccc3ccccc23)nnc1SCC(=O)Nc1ccccc1F [CBK265856]	92.1366
CCOP(=O)(O)c1c([N+](=O)[O-])cc(C(F)(F)F)cc1[N+](=O)[O-] [CBK261106G]	87.4424
COc1ccc(CCNS(=O)(=O)c2cccc([N+](=O)[O-])c2)cc1OC [CBK263618]	115.253
CCCc1cnc(N2CCN(S(=O)(=O)c3ccc(NC(C)=O)cc3Cl)CC2)nc1 [CBK086208]	93.7817
O=C(Nc1cccc(-c2cn3cccnc3n2)c1)c1cccc([N+](=O)[O-])c1 [CBK268963]	140.603
CC1(C)CCCCC1CC(=O)NS(=O)(=O)c1cccc(-c2nnco2)c1 (stereo not shown) [CBK306477]	117.531
CSc1ccccc1CNC(=O)c1cc(Br)cnc1N(C)C(C)=O [CBK076478]	115.697
N#Cc1ccc(-n2nc(-c3ccccc3)c3ccccc3c2=O)c([N+](=O)[O-])c1 [CBK132567]	125.599
Cc1cc(N2C[C@H](CO)OC2=O)ccc1C#N [CBK017978]	98.689
O=C(O)CCC(=O)Nc1cccc(C(=O)Nc2ccc(Br)cc2)c1 [CBK269129]	144.097
C=CCN(Cc1nc(-c2ccccc2)no1)C(=O)Nc1ccc(C)cc1 [CBK269859]	83.5956
CC(C)CSc1nccnc1N1CCCC1 [CBK103683]	98.844
COc1ccc(C2(CN3CCC(NC(=O)C(C)C)CC3)CC2)cc1 [CBK285374]	111.456
CC(NC(=O)N1CCC2(CC1)NC(=O)Cc1ccccc12)c1cccc2ccccc12 (stereo not shown) [CBK047280]	100.976
S=C(Nc1ccc(Nc2ccccc2)cc1)N1CCN(C/C=C/c2ccccc2)CC1 [CBK266149]	112.414
O=C(CCc1nc2ccccc2nc1O)OCc1cccc([N+](=O)[O-])c1 [CBK266804]	142.832
COCc1cc(CN2CCN(C)CC2)c(O)c2ncccc12 [CBK263546]	95.9437
Cc1cc(C)c(S(=O)(=O)NC(CC(=O)O)c2ccccc2)cc1C (stereo not shown) [CBK267081]	168.655
COc1ccccc1-c1cc2c(=O)n(C)c(-c3ccc(CNC(C)C)cc3)cc2o1 [CBK051699C]	83.3635
Cc1ccc(-n2c(SCC(=O)NCc3ccccc3)nnc2-c2ccc(Cl)cc2)cc1C [CBK265909]	182.839
O=C1COc2ccccc2C/C=C/CC2(CCCN(C(=O)CN3CSCC3=O)C2)CN1 (stereo not shown) [CBK292035]	115.432

4 records drawn at random from those above:
Compound	% of control remaining [%]
O=C(Nc1cccc(-c2cn3cccnc3n2)c1)c1cccc([N+](=O)[O-])c1 [CBK268963]	140.603
Cc1cc(N2C[C@H](CO)OC2=O)ccc1C#N [CBK017978]	98.689
Cc1ccc(-n2c(SCC(=O)NCc3ccccc3)nnc2-c2ccc(Cl)cc2)cc1C [CBK265909]	182.839
CC(C)CSc1nccnc1N1CCCC1 [CBK103683]	98.844

Next entries:

Compound	% of control remaining [%]
O=C1CN(C(=O)NCCOc2ccccc2)CCN1 [CBK155871]	81.9332
O=C(NC1CC1)c1cnoc1-c1ccccc1 [CBK154935]	114.41
O=C(CCn1ccnc1)NCC1Cc2ccccc2O1 (stereo not shown) [CBK283062]	137.721
CS(=O)(=O)c1ccc(CNC(=O)c2cc(-c3ccc(C(=O)N4CCOCC4)cc3)cnc2N)cc1 [CBK158599]	122.203
CCn1ncc(S(=O)(=O)N2CCC(c3cccc(Cc4ccccc4C)n3)CC2)c1C [CBK286116]	99.0163
O=C(O)CCc1ccc(-c2ccc(F)cc2)n1-c1cc(Cl)ccc1Cl [CBK264754]	120.344
COc1ccc(-c2cc(C(=O)NCC(O)CO)cnc2-c2ccc(Cl)cc2)cn1 (stereo not shown) [CBK036645]	226.776
CS(=O)(=O)N1CCN(c2ccccc2NC(=O)Cc2ccc(Cl)cc2)CC1 [CBK267605]	130.507
C[C@H]1CC[C@H](C(=O)N2CCC[C@H]2C(=O)O)CC1 [CBK028320]	113.736
Cc1cccc(NC(=O)C2CC(=O)NC(Nc3nc4ccccc4s3)=N2)c1 (stereo not shown) [CBK264362]	114.282
N=C(N)NCCCc1c[nH]c2ccccc12 [CBK012139G]	85.8003
FC(F)(F)c1ccnc(Sc2nc[nH]n2)n1 [CBK093806]	115.981
O=C(NC(Cc1ccccc1)C(=O)N1CCCC1C(=O)O)c1ccccc1 (stereo not drawn) [CBK264058] (Bz-Phe-Pro-OH; configuration not given here)	128.548
Cc1cnc2c(N3CCCC3)nc(Cl)cn12 [CBK092250]	110.498
Cc1cccc(C)c1OCC(O)CNCCc1ccccc1 (stereo not shown) [CBK003072]	106.811
CCNc1nc2ccccn2c(=O)c1C=C1SC(=S)N(CCCC(=O)O)C1=O [CBK296757]	199.303
O=S1(=O)CCN(Cc2cnn(-c3cncnc3)n2)CC1 [CBK112878]	162.846
C1=C(CCNCCc2ccccc2)c2ccccc2C12CCCC2 [CBK024723]	16.9991
C=CCn1c(COc2cccc(Cl)c2)nnc1SCC(=O)O [CBK269389]	129.773
Clc1ccc(Nc2cncc(-c3cccs3)n2)cc1 [CBK065805]	131.359
CCc1nc(-c2ccc(N(C)C)nc2)nn1C [CBK307381]	70.0992
CCOc1ccc(C(=O)Nc2ccc(-c3nc4ccccc4s3)cc2C)cc1[N+](=O)[O-] [CBK269005]	140.655
O=C(C1CCCO1)N1CCC(c2onc3c2CCCCC3)CC1 (stereo not shown) [CBK284487]	123.176
CC(C)Nc1nccnc1OC1CCNC1 (stereo not shown) [CBK115279]	100
O=c1cc(CN2CCCc3ccccc32)[nH]c(=O)[nH]1 [CBK138331]	92.5365
CN1[C@@H](CCC(=O)Nc2ccccc2)CNC(=O)[C@@H]2[C@H]1CCN2C1CCOCC1 [CBK289029]	128.99
CN(C)CC1CN(C(=O)c2ccccc2F)Cc2ccccc2O1 (stereo not shown) [CBK285188]	119.666

Compound	% of control remaining [%]
CCCC(=O)Nc1ccc(-c2csc(CCN3CCOC3=O)n2)cc1 [CBK305687]	105.587
O=C(NCCF)c1cn2cc(-c3cccs3)n(CC3CC3)c(=O)c2n1 [CBK307367]	126.427
Cc1ccc(-c2ccc(N3CCN(C)CC3)nc2)cc1C [CBK036937]	208.702
Cc1nc2ccc(NC(=O)c3cccc(C(F)(F)F)c3)cc2nc1C [CBK270221]	136.207
CCn1cncc1CN(CCCn1ccnc1)Cc1ccc(C)s1 [CBK283104]	113.233
O=C1CC(c2cccnc2)=NN1c1ccc(Cl)cc1Cl [CBK067764]	103.8
COCCNc1nc(-c2ccc3ccccc3c2)cn2ccnc12 [CBK066138]	161.933
Cn1cc(CN2CCNC(=O)C2c2ccccc2C(F)(F)F)cn1 (stereo not shown) [CBK306407]	90.8171
CC(=O)N1CCC(C(=O)NC(c2ccc3c(c2)OCO3)c2cccs2)CC1 (stereo not shown) [CBK059881]	149.445
O=C(O)COc1ccccc1/C=N/n1c(S)nnc1-c1ccncc1 [CBK265253]	100
Cc1ncc([N+](=O)[O-])n1CCSc1nnc(SCc2ccccc2)s1 [CBK264751]	100
COC(=O)c1ccc2c(c1)C(=O)N(c1ccc(C(=O)OCC(C)C)cc1)C2=O [CBK156802]	117.845
O=C1NN=C(c2ccccc2)CC1c1c[nH]c2ccccc12 (stereo not shown) [CBK288235]	110.18
O=C(NC1Cc2ccccc2C1)c1nccc2ccccc12 [CBK200356]	101.951
Cn1c(SCC(=O)c2ccc([N+](=O)[O-])cc2)nnc1-c1ccc(N)cc1 [CBK264843]	109.842
CC1CC(=O)C2=C(C1)NN=C(c1cccc(C(F)(F)F)c1)C2 (stereo not shown) [CBK020138]	125.323
COc1ccc(N(CC(=O)Nc2cccnc2)S(=O)(=O)c2ccc(C)cc2)cc1 [CBK264033]	110.558
COc1ccc(C(=O)N2CCCN(Cc3ccc(C#N)cc3)CC2)cc1 [CBK305374]	116.564
CN(Cc1nccn1C)c1nccc(N2CCN[C@H]3CS(=O)(=O)C[C@H]32)n1 [CBK307394]	131.079
Cn1c(=O)cc(NCCCCCC(=O)O)[nH]c1=O [CBK286574]	116.062
Cc1cccc(NC(=O)CN2C(=O)S/C(=C\c3cc(C)n(-c4ccc(N(C)C)cc4)c3C)C2=O)c1 [CBK264586]	123.659
COCCOc1ccc(C(=O)N2CCN(c3ccccc3)CC2)cc1 [CBK304626]	126.178
CC(=O)NCCOc1nc(N(C)C)nc(N2CCOCC2)n1 [CBK266651]	176.315
Cc1[nH]c2ccccc2c1CCNC(=O)N(Cc1cnn(C)c1)C1CC1 [CBK306661]	99.3334
CCOc1ccc(S(=O)(=O)Nc2ccc(O)c(C(=O)O)c2)cc1 [CBK299810]	102.657
